No constants are given. Whether binding was seen depends on the method and setting. Some results given as binding are weak or reduced against the parent protein; the word gives no strength.
Tests used:
[1] = molecular target: GST-tagged C-terminal region of INTS3 (GST-INTS3^C, 514-1042 amino acids) (human) (UniProt Q68E01); experiment: pull-down; GST-INTS3^FL, -INTS3^N or -INTS3^C incubated with hNABP1/2 or C9ORF80 at 4 C for 1 h, then glutathione-agarose beads 1 h; eluted with 10 mM glutathione; Western blot; both purified
[2] = molecular target: GST-tagged full-length integrator complex subunit 3 (GST-INTS3^FL) (human) (UniProt Q68E01); experiment: co-purification by two-step affinity chromatography; GST-INTS3^FL, His-hNABP1 or His-hNABP2 and His-C9ORF80 co-expressed in E. coli Rosetta 2; glutathione beads followed by Ni-NTA beads; SDS-PAGE and Western blot
[3] = molecular target: GST-tagged full-length integrator complex subunit 3 (GST-INTS3^FL) (human) (UniProt Q68E01); experiment: native gel or EMSA; purified INTS3^FL-hNABP1-C9ORF80 complex with dT30, or INTS3^FL-hNABP2-C9ORF80 complex with rU30, resolved on native gel, transferred to nitrocellulose and probed with INTS3, hNABP1/2 and C9ORF80 antibodies; both purified

The chains behind the UniProt entries cited, without tags or fusion partners. Where a name states a change or a piece, a line headed by the entry shows the natural chain unless it says otherwise. A line that says so, or that is headed by a name, gives the form on record, which may keep a tag or linker. Residues count along the entry.
UniProt Q68E01: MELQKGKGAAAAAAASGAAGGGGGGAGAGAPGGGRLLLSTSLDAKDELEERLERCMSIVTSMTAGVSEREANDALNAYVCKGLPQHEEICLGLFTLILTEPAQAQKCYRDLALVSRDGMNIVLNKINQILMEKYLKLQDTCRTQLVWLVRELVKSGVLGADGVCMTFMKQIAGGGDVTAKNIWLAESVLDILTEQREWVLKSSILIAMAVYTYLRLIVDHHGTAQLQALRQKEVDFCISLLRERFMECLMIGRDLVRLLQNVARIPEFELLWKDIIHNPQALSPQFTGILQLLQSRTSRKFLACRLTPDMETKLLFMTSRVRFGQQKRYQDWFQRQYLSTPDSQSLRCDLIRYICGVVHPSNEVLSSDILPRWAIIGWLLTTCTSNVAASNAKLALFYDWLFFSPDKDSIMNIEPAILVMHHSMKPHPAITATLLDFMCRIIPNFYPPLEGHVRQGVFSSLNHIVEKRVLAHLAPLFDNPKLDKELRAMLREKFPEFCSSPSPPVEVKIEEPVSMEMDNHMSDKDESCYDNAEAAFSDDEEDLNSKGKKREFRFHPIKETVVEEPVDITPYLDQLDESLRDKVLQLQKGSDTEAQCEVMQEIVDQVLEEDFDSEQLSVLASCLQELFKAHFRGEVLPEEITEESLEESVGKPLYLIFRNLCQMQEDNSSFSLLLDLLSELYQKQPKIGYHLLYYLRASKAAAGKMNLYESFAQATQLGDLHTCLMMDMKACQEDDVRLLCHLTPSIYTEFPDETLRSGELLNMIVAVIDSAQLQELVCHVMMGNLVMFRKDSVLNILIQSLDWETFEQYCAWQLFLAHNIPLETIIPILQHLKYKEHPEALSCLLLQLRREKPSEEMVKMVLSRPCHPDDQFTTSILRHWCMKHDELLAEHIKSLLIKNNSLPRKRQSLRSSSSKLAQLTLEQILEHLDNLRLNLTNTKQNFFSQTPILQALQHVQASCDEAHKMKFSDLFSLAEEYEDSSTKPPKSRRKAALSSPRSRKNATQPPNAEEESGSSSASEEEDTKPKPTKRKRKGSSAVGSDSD
GST-tagged C-terminal region of INTS3 (GST-INTS3^C, 514-1042 amino acids): residues 514-1042 of Q68E01
UniProt Q96AH0: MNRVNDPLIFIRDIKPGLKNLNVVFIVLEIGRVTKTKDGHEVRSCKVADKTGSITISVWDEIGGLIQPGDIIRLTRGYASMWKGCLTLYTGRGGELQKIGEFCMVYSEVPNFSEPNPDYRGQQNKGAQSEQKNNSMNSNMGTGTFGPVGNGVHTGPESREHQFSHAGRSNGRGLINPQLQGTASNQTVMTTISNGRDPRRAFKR

Measured: binding

Human nucleic acid-binding protein 1 (hNABP1) (from UniProt Q96AH0 1-204)
binds: [1] | [2] | [3]
